The values that follow come from the supplement of paper PMC12819154, “High-throughput peptide-centric local stability assay extends protein–ligand identification to membrane proteins, tissues and bacteria” (Nature Structural & Molecular Biology, 2025).

By UniProt entry, the sequences of proteins in these tests, tags left out. Where a name states a change or a piece, a line headed by the entry shows the natural chain unless it says otherwise.
UniProt A0JNU3: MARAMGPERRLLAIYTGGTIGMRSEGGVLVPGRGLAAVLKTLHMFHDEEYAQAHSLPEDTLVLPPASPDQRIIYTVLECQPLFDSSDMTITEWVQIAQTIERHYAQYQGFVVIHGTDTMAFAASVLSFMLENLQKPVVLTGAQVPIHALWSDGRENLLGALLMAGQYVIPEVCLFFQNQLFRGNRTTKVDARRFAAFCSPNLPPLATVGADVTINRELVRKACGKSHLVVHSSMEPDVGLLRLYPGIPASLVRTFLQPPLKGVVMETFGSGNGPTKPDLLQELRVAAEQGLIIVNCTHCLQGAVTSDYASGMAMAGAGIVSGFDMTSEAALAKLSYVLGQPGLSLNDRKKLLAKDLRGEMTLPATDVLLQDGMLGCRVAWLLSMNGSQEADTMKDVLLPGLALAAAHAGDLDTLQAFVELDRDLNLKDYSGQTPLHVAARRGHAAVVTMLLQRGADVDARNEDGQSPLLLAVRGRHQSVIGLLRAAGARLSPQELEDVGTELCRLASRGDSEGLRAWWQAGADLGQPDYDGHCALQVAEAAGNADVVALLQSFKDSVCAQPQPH
UniProt A2ARP1: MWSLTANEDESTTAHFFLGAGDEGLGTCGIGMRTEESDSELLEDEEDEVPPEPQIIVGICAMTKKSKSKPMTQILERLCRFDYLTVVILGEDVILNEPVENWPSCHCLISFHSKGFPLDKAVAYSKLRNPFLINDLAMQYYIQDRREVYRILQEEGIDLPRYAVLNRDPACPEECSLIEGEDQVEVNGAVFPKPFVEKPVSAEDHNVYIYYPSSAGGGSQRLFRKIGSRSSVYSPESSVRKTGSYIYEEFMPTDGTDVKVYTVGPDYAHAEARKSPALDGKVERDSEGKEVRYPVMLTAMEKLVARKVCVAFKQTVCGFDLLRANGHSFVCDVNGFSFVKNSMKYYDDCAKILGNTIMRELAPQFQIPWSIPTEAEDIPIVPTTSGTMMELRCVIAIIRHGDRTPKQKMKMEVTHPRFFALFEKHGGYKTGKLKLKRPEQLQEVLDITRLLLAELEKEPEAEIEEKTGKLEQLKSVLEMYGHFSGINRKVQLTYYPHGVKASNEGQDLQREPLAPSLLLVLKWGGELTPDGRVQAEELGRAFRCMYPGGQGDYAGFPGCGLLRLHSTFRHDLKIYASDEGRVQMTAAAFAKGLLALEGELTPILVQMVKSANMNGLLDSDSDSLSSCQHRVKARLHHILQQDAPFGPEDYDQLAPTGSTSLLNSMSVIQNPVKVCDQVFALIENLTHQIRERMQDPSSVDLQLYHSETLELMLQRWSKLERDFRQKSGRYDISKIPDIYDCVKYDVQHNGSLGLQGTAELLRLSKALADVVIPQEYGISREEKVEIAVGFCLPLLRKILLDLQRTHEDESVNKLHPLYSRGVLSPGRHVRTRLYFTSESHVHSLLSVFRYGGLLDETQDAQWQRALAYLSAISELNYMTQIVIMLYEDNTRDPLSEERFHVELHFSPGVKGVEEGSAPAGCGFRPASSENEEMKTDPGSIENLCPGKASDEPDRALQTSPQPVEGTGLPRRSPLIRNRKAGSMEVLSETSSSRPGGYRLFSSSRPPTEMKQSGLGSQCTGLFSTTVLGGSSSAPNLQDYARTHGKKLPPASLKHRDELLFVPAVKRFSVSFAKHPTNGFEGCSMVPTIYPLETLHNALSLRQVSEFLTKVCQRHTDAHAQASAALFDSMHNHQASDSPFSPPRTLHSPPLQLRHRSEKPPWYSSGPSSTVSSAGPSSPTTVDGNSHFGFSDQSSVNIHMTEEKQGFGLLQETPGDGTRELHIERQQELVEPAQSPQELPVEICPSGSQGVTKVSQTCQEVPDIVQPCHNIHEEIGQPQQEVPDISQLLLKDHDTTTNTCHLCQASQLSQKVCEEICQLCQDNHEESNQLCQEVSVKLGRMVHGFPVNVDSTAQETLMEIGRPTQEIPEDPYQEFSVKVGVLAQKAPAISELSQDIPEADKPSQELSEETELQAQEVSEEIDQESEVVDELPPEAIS
UniProt A2AJL3: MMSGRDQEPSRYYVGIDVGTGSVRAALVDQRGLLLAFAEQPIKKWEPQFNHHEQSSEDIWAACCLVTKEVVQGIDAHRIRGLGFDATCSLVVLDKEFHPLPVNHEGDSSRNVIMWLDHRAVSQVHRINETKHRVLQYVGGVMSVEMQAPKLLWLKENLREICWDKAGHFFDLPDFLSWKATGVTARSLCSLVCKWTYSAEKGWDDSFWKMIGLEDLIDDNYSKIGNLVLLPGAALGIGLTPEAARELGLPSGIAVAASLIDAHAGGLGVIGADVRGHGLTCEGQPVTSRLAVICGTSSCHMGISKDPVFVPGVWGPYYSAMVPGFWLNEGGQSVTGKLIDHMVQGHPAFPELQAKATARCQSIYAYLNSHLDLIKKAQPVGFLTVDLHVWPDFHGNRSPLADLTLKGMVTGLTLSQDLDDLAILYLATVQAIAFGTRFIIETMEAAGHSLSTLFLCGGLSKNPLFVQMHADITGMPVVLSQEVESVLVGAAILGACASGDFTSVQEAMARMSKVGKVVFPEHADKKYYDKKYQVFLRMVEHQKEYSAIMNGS
UniProt A2APV2, whole entry: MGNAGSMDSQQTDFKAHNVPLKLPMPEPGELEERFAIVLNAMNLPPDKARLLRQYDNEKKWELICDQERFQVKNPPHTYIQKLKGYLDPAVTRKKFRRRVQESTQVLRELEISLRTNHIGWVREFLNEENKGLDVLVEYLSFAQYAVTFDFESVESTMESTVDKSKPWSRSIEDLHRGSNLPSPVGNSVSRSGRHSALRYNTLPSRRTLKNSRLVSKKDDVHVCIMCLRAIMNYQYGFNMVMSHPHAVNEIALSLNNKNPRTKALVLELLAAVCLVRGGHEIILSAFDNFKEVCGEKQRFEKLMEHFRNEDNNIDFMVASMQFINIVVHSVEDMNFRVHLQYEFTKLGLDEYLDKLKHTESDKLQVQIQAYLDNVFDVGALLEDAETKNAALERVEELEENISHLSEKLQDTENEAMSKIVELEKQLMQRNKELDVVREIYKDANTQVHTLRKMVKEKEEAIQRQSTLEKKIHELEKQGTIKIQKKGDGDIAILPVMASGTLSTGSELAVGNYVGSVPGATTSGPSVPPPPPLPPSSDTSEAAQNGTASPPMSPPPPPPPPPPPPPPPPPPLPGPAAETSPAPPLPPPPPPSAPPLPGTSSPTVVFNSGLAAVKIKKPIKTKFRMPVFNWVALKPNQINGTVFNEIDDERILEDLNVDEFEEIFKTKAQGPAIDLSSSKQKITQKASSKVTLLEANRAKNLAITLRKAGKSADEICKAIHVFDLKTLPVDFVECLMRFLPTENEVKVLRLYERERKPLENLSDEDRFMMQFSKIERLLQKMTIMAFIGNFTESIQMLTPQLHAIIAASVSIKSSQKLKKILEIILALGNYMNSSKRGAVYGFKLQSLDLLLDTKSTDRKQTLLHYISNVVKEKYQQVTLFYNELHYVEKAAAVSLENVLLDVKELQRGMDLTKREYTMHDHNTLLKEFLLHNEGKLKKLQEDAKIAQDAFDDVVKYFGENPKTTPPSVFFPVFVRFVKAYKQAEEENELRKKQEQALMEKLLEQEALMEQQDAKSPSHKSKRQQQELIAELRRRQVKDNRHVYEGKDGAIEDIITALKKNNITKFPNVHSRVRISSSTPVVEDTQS
UniProt A2AS89: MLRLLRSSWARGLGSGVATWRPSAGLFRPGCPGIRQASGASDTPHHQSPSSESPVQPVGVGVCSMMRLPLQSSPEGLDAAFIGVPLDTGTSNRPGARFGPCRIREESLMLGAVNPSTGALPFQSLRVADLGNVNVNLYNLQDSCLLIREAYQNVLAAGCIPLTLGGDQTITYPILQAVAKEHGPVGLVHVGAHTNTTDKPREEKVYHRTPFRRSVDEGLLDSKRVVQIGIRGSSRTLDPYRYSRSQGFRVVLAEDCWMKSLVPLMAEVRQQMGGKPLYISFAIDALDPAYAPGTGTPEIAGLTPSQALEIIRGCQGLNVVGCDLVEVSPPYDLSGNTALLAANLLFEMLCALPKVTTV
UniProt A2AJ15: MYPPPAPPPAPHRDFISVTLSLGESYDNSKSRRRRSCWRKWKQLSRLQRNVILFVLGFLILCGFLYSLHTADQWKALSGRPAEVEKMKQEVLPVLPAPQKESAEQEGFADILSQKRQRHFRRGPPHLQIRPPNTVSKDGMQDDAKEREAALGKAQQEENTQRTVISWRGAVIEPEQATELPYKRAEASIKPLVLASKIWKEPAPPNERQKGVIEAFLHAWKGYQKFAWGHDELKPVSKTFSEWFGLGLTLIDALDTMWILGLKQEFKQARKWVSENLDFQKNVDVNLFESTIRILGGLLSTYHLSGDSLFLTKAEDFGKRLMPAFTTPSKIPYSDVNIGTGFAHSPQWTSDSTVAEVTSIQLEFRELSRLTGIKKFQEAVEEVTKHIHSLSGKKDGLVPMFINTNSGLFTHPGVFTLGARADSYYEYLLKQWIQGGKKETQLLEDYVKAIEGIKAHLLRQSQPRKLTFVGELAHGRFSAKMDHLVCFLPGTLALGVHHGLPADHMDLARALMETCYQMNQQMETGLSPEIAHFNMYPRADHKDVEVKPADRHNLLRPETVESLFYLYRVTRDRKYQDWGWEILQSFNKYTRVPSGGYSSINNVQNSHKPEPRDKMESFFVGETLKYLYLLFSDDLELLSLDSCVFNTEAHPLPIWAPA
UniProt A6X935: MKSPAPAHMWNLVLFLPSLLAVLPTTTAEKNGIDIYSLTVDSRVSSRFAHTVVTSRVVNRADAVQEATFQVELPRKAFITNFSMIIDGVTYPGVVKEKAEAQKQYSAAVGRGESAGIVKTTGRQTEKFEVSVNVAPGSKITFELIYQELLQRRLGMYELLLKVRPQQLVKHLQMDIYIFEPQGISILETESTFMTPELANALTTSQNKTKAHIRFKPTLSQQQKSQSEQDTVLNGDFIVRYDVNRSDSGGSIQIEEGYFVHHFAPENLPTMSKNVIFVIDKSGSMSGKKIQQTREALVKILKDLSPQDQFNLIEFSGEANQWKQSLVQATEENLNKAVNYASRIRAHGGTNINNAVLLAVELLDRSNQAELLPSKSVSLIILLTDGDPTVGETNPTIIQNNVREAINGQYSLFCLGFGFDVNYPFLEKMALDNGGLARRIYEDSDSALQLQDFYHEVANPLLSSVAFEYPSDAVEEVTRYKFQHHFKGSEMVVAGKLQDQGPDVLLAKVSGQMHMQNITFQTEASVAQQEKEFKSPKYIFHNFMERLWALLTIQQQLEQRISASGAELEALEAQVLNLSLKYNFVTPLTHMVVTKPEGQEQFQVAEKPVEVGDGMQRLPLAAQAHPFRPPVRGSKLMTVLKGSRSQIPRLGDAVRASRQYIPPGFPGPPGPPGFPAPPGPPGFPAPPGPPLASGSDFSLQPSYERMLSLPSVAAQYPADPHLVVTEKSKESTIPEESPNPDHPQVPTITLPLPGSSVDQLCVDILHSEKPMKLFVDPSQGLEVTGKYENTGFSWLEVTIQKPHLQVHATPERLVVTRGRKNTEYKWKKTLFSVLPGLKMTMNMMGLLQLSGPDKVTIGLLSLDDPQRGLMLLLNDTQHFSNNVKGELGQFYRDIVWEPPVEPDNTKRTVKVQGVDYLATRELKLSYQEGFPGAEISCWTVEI
UniProt A2ALK8: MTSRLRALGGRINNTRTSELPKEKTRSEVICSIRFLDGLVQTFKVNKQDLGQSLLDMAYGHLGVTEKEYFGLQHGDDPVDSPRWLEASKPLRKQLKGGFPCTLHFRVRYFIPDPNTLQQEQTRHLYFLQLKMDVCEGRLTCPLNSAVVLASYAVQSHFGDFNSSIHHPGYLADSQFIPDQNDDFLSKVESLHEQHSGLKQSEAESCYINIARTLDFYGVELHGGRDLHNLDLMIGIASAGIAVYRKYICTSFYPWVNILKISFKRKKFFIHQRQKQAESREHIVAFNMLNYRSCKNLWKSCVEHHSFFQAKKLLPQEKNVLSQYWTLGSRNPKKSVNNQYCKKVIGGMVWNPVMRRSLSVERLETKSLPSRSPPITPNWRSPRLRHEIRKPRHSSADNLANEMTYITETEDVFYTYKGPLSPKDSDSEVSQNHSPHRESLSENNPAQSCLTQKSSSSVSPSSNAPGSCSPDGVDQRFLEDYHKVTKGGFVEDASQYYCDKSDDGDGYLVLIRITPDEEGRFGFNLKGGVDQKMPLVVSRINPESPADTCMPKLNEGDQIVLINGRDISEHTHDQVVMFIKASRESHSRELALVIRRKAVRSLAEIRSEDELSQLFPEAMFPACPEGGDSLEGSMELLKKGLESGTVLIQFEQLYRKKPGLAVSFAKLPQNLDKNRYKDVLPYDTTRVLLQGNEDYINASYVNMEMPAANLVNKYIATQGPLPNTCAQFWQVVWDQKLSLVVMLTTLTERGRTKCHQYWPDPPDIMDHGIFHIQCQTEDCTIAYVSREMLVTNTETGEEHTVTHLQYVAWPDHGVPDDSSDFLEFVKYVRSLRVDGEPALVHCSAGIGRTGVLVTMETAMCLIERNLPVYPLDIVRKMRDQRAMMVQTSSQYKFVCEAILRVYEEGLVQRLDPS

The list shows a part of the results. Most values lie at the level of the controls, where differences are scatter.

Compound in this assay: CN[C@@H]1C[C@H]2O[C@@](C)([C@@H]1OC)n1c3ccccc3c3c4c(c5c6ccccc6n2c5c31)C(=O)NC4 [staurosporine]
The assay is described as follows: log2 fold change of tryptic peptide abundance, ligand vs vehicle (limited proteolysis) (log2 ratio); higher = more trypsin-susceptible (destabilized). The settings on record: ligand concentration: 20 uM; sample: mouse liver crude lysate; replicate design: treated separately.
In the case of “UniProt A2A8L5 (peptide sequence: FVSANLPCNK, peptide start residue: 1647)”, the log2 fold change was -0.288.

For “UniProt A0JNU3 (peptide sequence: RGHAAVVTMLLQR, peptide start residue: 441)”, the log2 fold change is -0.0995. Next, “UniProt A4UUI3 (peptide sequence: IKTLREGIK, peptide start residue: 284)”: -0.497. Regarding “UniProt A3KGV1 (peptide sequence: KEELEEVAHELAETEHENTVLR, peptide start residue: 159)”, the log2 fold change is 0.22.

As for “UniProt A2AWP8 (peptide sequence: VSFLHRK, peptide start residue: 267)”, the log2 fold change came to 0.657. “UniProt A2TJV2 (peptide sequence: RLQEEIGAAR, peptide start residue: 34)”: the log2 fold change was determined as 0.0235. Next, “UniProt A2A3V1 (peptide sequence: YSWLEEEGDSIRVDK, peptide start residue: 809)”: 0.414; “UniProt A2A5R2 (peptide sequence: SHEMFVTAIK, peptide start residue: 431)”: 0.449; “UniProt A2ARP1 (peptide sequence: VYTVGPDYAHAEAR, peptide start residue: 255)”: -0.185.

“UniProt A2AU37 (peptide sequence: TSGHLLLGVVR, peptide start residue: 55)”: the log2 fold change was 0.221. Take “UniProt A1IGU4 (peptide sequence: GYVPSNFLAR, peptide start residue: 654)”: the log2 fold change was -0.239. Next, “UniProt A1A5B6 (peptide sequence: DHLVQLSHPATLISSK, peptide start residue: 576)”: 0.226; “UniProt B2RS91 (peptide sequence: FGGTVTEVLLK, peptide start residue: 50)”: -0.269. Take “UniProt B2RR83 (peptide sequence: FADNTHR, peptide start residue: 664)”: the log2 fold change was -0.908. Consider “UniProt A2AJL3 (peptide sequence: VVFPEHADKK, peptide start residue: 517)”, for which the log2 fold change came to 0.264. Turning to “A0A5F8MPU3 (peptide sequence: SPERPSDISLKK, peptide start residue: 1916), A0A5F8MPU3”, the log2 fold change was -0.164. In the case of “UniProt B1AY10 (peptide sequence: NYSSSPPCHLPR, peptide start residue: 47)”, the log2 fold change is -0.496. Consider “UniProt B2RRE7 (peptide sequence: LQRPKEESSEDENEVSNILR, peptide start residue: 1009)”, for which the log2 fold change was -0.558. Consider “UniProt B1AR13 (peptide sequence: NQPFCDGSHFFQR, peptide start residue: 77)”, for which the log2 fold change was -0.253. Next, “A0A087WPF7 (peptide sequence: KGEPAYENPKK, peptide start residue: 966), A0A087WPF7”: 0.0893; “UniProt A2APV2 (peptide sequence: AIHVFDLK, peptide start residue: 718)”: 0.176; “UniProt A2APY7 (peptide sequence: LNDVMSHEK, peptide start residue: 334)”: -0.167. Turning to “UniProt A7XUY5 (peptide sequence: EMKDFLLDRIK, peptide start residue: 1190)”, the log2 fold change amounted to 0.512. Next, “UniProt A2A8L1 (peptide sequence: VLIFSQMTK, peptide start residue: 1062)”: 0.407; “UniProt A2AS89 (peptide sequence: SVDEGLLDSK, peptide start residue: 214)”: 0.154. As to “UniProt A6H6A9 (peptide sequence: VVITVQQLSNK, peptide start residue: 313)”, the log2 fold change was 0.564. Next, “UniProt A2AJ15 (peptide sequence: RGPPHLQIRPPNTVSK, peptide start residue: 122)”: 0.128; “UniProt A2AKX3 (peptide sequence: QCPEPTSTVEK, peptide start residue: 1264)”: -0.357; “UniProt A2BH40 (peptide sequence: SPFLHSGMK, peptide start residue: 1605)”: 0.205. Take “UniProt B1AVH7 (peptide sequence: MEHLKDDMEAYR, peptide start residue: 450)”: the log2 fold change amounted to 0.269. On to “UniProt A2ABV5 (peptide sequence: LPGMSPANPSLHSPVPDVSHSPR, peptide start residue: 1129)”, for which the log2 fold change was -0.267. On to “UniProt A6X935 (peptide sequence: GSEMVVAGK, peptide start residue: 488)”, for which the log2 fold change is -0.169. Turning to “UniProt A2AKG8 (peptide sequence: KLSTYLDESGSQSR, peptide start residue: 1165)”, the log2 fold change was 0.627. With “UniProt A2ALK8 (peptide sequence: NLPVYPLDIVR, peptide start residue: 865)”, the log2 fold change was 0.432.

As to “UniProt A7RDN6 (peptide sequence: GGDIGGR, peptide start residue: 36)”, the log2 fold change is -0.0315.
